# Percent effect of library compounds

Amino acid sequences for entries named in this document (tags omitted).
UniProt P9WNZ1, whole entry: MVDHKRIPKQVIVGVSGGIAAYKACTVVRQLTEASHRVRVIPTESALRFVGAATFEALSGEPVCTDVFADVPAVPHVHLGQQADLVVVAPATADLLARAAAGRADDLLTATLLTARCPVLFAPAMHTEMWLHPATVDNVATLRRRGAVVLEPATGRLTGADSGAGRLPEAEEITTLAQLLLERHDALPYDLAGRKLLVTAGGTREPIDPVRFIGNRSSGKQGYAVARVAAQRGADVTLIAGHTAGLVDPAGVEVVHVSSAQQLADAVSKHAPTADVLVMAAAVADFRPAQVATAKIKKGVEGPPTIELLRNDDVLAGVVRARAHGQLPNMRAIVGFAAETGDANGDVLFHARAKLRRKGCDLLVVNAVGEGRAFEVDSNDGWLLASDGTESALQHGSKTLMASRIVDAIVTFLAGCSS

Results are given as percent effect.
The record does not define 0% and 100%; most values in the screen are far below 50% and negative numbers occur (in some assays of this library far below -100).
The compounds are a random part of those screened.
Two or more numbers in one place are separate tests of the same structure; such repeats can differ widely.
A dash means the value is not listed here; it may have been measured.

A: 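Cell assay of Leishmania donovani living inside macrophages; the read-out is not stated. Concentration: 30 µM. Higher reads as stronger inhibition (inferred: compounds with an IC50 in retests scored well above the rest). About 69,000 compounds were tested under these conditions; 1.5% (about 1,000) showed 50% or more at least once.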
B: 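Enzyme assay of CoaBC with a phosphate dye (Biomol Green) read at 650 nm. Target: Coenzyme A biosynthesis protein CoaBC, Mycobacterium tuberculosis (UniProt P9WNZ1). Tested at 30 µM. Direction is inferred from only a few compounds that gave an IC50; most scored high, so higher reads as stronger inhibition. Most strong results did not repeat in a second test. About 67,000 compounds were tested under these conditions; 0.06% (about 40) showed 50% or more at least once.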

| # | structure | A | B |
|---|---|---|---|
| 1 | `O=C1CC[C@H]2CN(c3ncc(F)cn3)CC[C@H]2N1CCc1c[nH]cn1` | - | -3.023% |
| 2 | `Cn1nnc2c1CCN(C(=O)C1CCC1)C2COCCN1CCCC1.O=C(O)C(F)(F)F` (stereo unspecified) | -0.4835% | - |
| 3 | `CC(=O)c1cc(C(=O)N2CCC(CC(C)C)C2)c(=O)[nH]c1C` (stereo unspecified) | 3.876% | 2.451% |
| 4 | `CCOC(=O)CN(C)Cc1cnc(C)s1` | 11.65% | 0.3802% |
| 5 | `Cc1[nH]ncc1CCCNC(=O)Nc1ccccc1` | 1.898% | -2.564% |
| 6 | `[H][C@@]12CS(=O)(=O)C[C@]1([H])N(C(=O)C1CC1)CCN2Cc1[nH]cnc1C` | -87.2% | - |
| 7 | `O=C1Nc2ccccc2C12CCN(Cc1nccs1)CC2` | - | 0.6435% |
| 8 | `Cc1ccc(-n2ncc(C(=O)NC3CC(C)(C)NC(C)(C)C3)c2N)cc1` | 17.93% | 0.4854% |
| 9 | `CC(C)n1c2ccccc2c2c1cc(C(=O)N(C)C)n2C` | 20.71% | -3.951% |
| 10 | `O=C(CNC1(CCO)CCOCC1)Nc1ccc(F)cc1F` | 22.3% | 0.9732% |
| 11 | `c1coc(-c2noc(CN3CCCC(Cn4cncn4)C3)n2)c1` (stereo unspecified) | -8.09% | -4.37% |
| 12 | `COc1cc(NC(=O)NC(C2CC2)C2CC2)ccc1N1CCOC1=O` | 14.54% | 5.372% |
| 13 | `Cc1cnc(NC(=O)N2CCOCC2)s1` | 22.07% | -12.43% |
| 14 | `CCOCc1cnc2n1CCN(C(=O)Cc1ccco1)C2C` (stereo unspecified) | 17.38% | -1.025% |
| 15 | `Cl.NCC1CCC(c2c(C(=O)NCCO)sc3ccccc23)CC1` (stereo unspecified) | 15.08% | - |
| 16 | `CCn1ccnc1CN1CCOC(CNc2cccnn2)C1` (stereo unspecified) | 19.25% | 2.651% |
| 17 | `Clc1ccc2oc(C3CCN(Cc4nc(C5CC5)no4)CC3)nc2c1` | 9.399% | 2.526% |
| 18 | `NCC1Cc2cc(Cl)cc(-c3cncc(C(=O)N4CCCCC4)n3)c2O1` (stereo unspecified) | 74.83% | -19.11% |
| 19 | `Cc1nc(CCNC(=O)N2CCC(Cc3cnn(C)c3)C2)cs1` (stereo unspecified) | 20.58% | 2.024% |
| 20 | `[H][C@]12CN(Cc3cccnc3OC)CC[C@@]1(O)CCN(C(=O)COC)C2` | 17.23% | - |
| 21 | `CNC(=O)CCNC(=O)CCc1c(C)nc2cc(O)nn2c1C` | -16.25% | 1.677% |
| 22 | `COc1ccc(C(=O)N2CCCCC2Cn2cccn2)c(F)c1` (stereo unspecified) | 16.76% | -1.205% |
| 23 | `Clc1cc(N2CCN(C3CCOCC3)CC2)nc2[nH]ccc12` | 26.12% | 0.4959% |
| 24 | `Cn1cccc1C(=O)NCc1cn2c(n1)CN(CC1CCOCC1)CC2.O=C(O)C(F)(F)F` | 22.76% | - |
| 25 | `COC(=O)c1cc2c(=O)n(C3CCCC3)ccc2nc1C` | 2.944% | 1.515% |
| 26 | `CC(=O)N(C)CC(=O)Nc1cccc(N2CCN(CC3CC3)CC2)c1` | 22.95% | -6.167% |
| 27 | `C[C@H](NS(C)(=O)=O)C(=O)NCc1cc(-c2ccco2)n[nH]1` | 11.68% & -4.816% | 3.253% |
| 28 | `CCCS(=O)(=O)N1CCC2(CC1)COCCN(C(C)=O)C2` | 22.68% | - |
| 29 | `Cc1ccc(C(=O)N2CCC(c3noc(-c4cccnc4)n3)CC2)cn1` | -26.31% | 4.338% |
| 30 | `CC(C)(C)C1CC(=O)Nc2c1cnn2Cc1ccco1` (stereo unspecified) | -20.03% & 18.52% | 4.051% |
| 31 | `CN(C)c1cc(C(=O)N2CCCCCC2)ccn1` | 16.66% | 2.632% |
| 32 | `CCn1ncc(C(=O)NCc2ccc(C)c(OC)c2)c1C(F)(F)F` | 26.45% & 12.14% | 2.532% |
| 33 | `O=C(c1ccc(=O)[nH]n1)N(CCO)Cc1cc(Br)ccc1F` | 7.071% | 0.9434% |
| 34 | `CCN(CC)C(=O)N1CCN(C2=NCC(C)S2)CC1` (stereo unspecified) | 6.652% | 1.208% |
| 35 | `[H][C@@]12CCN(C[C@@H]1CN1CCC(C)CC1)[C@@H](CNC(=O)Nc1ccsc1)C2` | -27.83% | - |
| 36 | `COc1cccnc1NC(=O)c1ccc(COCC(F)(F)F)cc1` | 10.11% | 3.155% |
| 37 | `COCCNc1ncc(-c2cc(C)no2)c(-c2ccco2)n1` | 1.366% | -2.632% |
| 38 | `CC(C)C1CN(C(=O)c2ccc(N3CCCC3)nc2)CCS1` (stereo unspecified) | 18.37% | -1.364% |
| 39 | `CC(C)CCN(C)Cc1nc2c(cnn2C)c(=O)[nH]1` | 7.708% | -1.053% |
| 40 | `CNC(=O)c1cc(-c2ccccc2)nc2ncnn12` | -6.07% | -0.1148% |
| 41 | `Cc1cc(=O)n(CCNS(=O)(=O)c2ccccc2)cn1` | -10.94% | 0.7264% |
| 42 | `CC(C)CCN1Cc2c(C(=O)O)ncn2-c2ccccc2S1(=O)=O` | -20.47% | 3.856% |
| 43 | `CCN(C(=O)CN1CCCC1c1ccc(OC)cc1)c1ccccc1` (stereo unspecified) | 1.284% | -4.167% |
| 44 | `O=C(c1cnoc1)N1CCC[C@]2(C[C@H](Oc3ncccc3F)CO2)C1` | - | -0.6452% |
| 45 | `Cc1cc2nc(CN(C)c3ccccc3)cc(=O)n2o1` | -40.07% | 0.1148% |
| 46 | `Cc1ccc(C(=O)NC2CCCN(C)C2)c(=O)[nH]1` (stereo unspecified) | 36.14% | 9.709% |
| 47 | `COCC(=O)NCCn1ccc2c(OC)cccc21` | 29.91% | 4.172% |
| 48 | `CCS(=O)(=O)c1ccc2c(c1)OCCO2` | 34.4% | -0.4577% |
| 49 | `Cc1cc(C(=O)NCC(Cc2cccc(F)c2)N2CCCCC2=O)no1` (stereo unspecified) | 6.099% & -9.797% | 3.308% |
| 50 | `Cc1ccc(OCCCNC(=O)Cc2nc3ncccn3n2)cc1` | 19.94% | -9.274% |
| 51 | `Cc1nnc2n1CCN(C(=O)c1cc(Br)c(Cl)[nH]1)C2` | 23.36% | 4.604% |
| 52 | `CCn1ncc2c1C(COCC1CC1)CN(S(=O)(=O)N(C)C)C2` (stereo unspecified) | - | 7.527% |
| 53 | `Cc1ccc(-c2nc(CNS(=O)(=O)N(C)C)[nH]c2-c2ccccn2)cc1` | 30.48% | 14.73% |
| 54 | `c1ccc(-n2ncc(CNCC3CCCN3c3cccnn3)n2)cc1` (stereo unspecified) | 33.65% | 3.172% |
| 55 | `O=C(O)C(F)(F)F.[H][C@@]12COC[C@]1(C(=O)NC1CC(F)(F)C1)CN(Cc1ccccc1)C2` | 18.84% | - |
| 56 | `CC(C)(C)C(=O)N1CCN(C(=O)Nc2cnn(CC(F)F)c2)CC1` | 4.989% | 10.06% |
| 57 | `COCCNC(=O)N1CCN(C(C)C(=O)NC(C)C)CC1` (stereo unspecified) | -7.233% | 7.097% |
| 58 | `COCCN1C(=O)CCC12CCN(C(=O)NC(C)C)CC2` | 3.959% | 0.9674% |
| 59 | `CC(C)c1nc(C2CCCN2C(=O)c2ccc(N(C)C)nn2)no1` (stereo unspecified) | -16.27% | 9.444% |
| 60 | `Cc1cc(C(C)(O)CNC(=O)c2ccc(Br)o2)c(C)o1` (stereo unspecified) | -10.53% | 5.353% |
| 61 | `CN(Cc1ccc(F)cc1)[C@@H]1CN(S(=O)(=O)N(C)C)C[C@H]1O` | 31.79% | -5.502% |
| 62 | `COCCN1CC[C@@H]2CN(Cc3nccn3C)C[C@@H]2C1` | - | -11.97% |
| 63 | `c1ccc(CN2CCC3(CC2)CCN(Cc2cccs2)C3)nc1` | - | 1.693% |
| 64 | `CCOCCOC(C)C(=O)Nc1ccc2ccn(CCN(C)C)c2c1` (stereo unspecified) | 7.756% | -31.87% |
| 65 | `CCOCc1ncn2c1CN(S(=O)(=O)c1cccs1)CC2` | 13.24% | 1.629% |
| 66 | `CC1CCN(CCCNS(=O)(=O)c2cc(F)cc(F)c2)CC1.Cl` | -7.279% | - |
| 67 | `O=C(O)C(F)(F)F.O=C(O)C(F)(F)F.c1cncc(OCc2nnn3c2CN(Cc2ccsc2)CCC3)c1` | 20.25% | - |
| 68 | `CC1(C)CN(C(=O)c2cnc(CN3CCCC3)s2)CC[C@]1(C)O` | 21.7% | -6.143% |
| 69 | `Cc1nn(C)cc1Cn1c(=O)c(C)nc2ccccc21` | 42.34% | 2.81% |
| 70 | `N#Cc1ccc(N2CCC3(CCCN(c4ccccn4)C3)C2)nc1` (stereo unspecified) | - | -0.611% |
| 71 | `CC(C)(C)c1nccc(N2CCCCC2CCNS(C)(=O)=O)n1` (stereo unspecified) | 19.3% | 0.2336% |
| 72 | `Cc1nc(C(F)(F)F)nc(N2CCC(O)(C(=O)O)CC2)c1C` | 23.1% | 1.739% |
| 73 | `CN(Cc1csc(-c2cccs2)n1)C(=O)CN1CCOC1=O` | 18.32% | 4.059% |
| 74 | `Cc1ncnc2c1CCN(CC(=O)N(C)C)CC2.O=C(O)C(F)(F)F` | 25.37% | - |
| 75 | `O=C1NCCCc2c1oc1ccc(O)c(CN3CCOCC3)c21` | 56.93% | -1.453% |
| 76 | `O=C(O)C(F)(F)F.[H][C@@]12CN(C(=O)c3cnoc3C)C[C@]1([H])C(=O)N(Cc1cccc(C)n1)C2` | 2.53% | - |
| 77 | `CCN1C[C@H]2C3(CCN(S(=O)(=O)CC)CC3)CC[C@@]2(C(=O)N(C)C)C1` | - | -15% |
| 78 | `O=C(c1cccc(F)c1)N1CCc2ncc(Cn3cccn3)n2CC1` | -5.831% | -13.93% |
| 79 | `CS(=O)(=O)Nc1cccc(CNC(=O)CCc2ccsc2)c1` | 17.24% | -2.056% |
| 80 | `Cc1ccccc1C(C(=O)NCCSC(F)(F)F)N(C)C` (stereo unspecified) | 10.78% | -7.547% |
| 81 | `CCc1ccc(S(=O)(=O)NCCC(O)c2ccoc2)s1` (stereo unspecified) | -33.75% | -1.022% |
| 82 | `N#CCCN(Cc1ccco1)C(=O)CCCNC(=O)c1ccccc1` | 9.883% | 6.436% |

The first 8 entries again:

{"structure": "O=C1CC[C@H]2CN(c3ncc(F)cn3)CC[C@H]2N1CCc1c[nH]cn1", "B": -3.023}
{"structure": "Cn1nnc2c1CCN(C(=O)C1CCC1)C2COCCN1CCCC1.O=C(O)C(F)(F)F", "stereo": "stereo unspecified", "A": -0.4835}
{"structure": "CC(=O)c1cc(C(=O)N2CCC(CC(C)C)C2)c(=O)[nH]c1C", "stereo": "stereo unspecified", "A": 3.876, "B": 2.451}
{"structure": "CCOC(=O)CN(C)Cc1cnc(C)s1", "A": 11.65, "B": 0.3802}
{"structure": "Cc1[nH]ncc1CCCNC(=O)Nc1ccccc1", "A": 1.898, "B": -2.564}
{"structure": "[H][C@@]12CS(=O)(=O)C[C@]1([H])N(C(=O)C1CC1)CCN2Cc1[nH]cnc1C", "A": -87.2}
{"structure": "O=C1Nc2ccccc2C12CCN(Cc1nccs1)CC2", "B": 0.6435}
{"structure": "Cc1ccc(-n2ncc(C(=O)NC3CC(C)(C)NC(C)(C)C3)c2N)cc1", "A": 17.93, "B": 0.4854}

Source: ChEMBL document CHEMBL3988442, “University of Dundee, Small-Polar-MMV Screening Library” (2021).